Experimental data: the supplement of paper PMC12823440, “Inhibitors supercharge kinase turnover through native proteolytic circuits” (Nature, 2025)
The list shows a part of the results. Hit calls seldom repeat between salt and free forms of one compound.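 Kinases were expressed as nanoluciferase fusions in K562 cells and luminescence was read every 4 h between 2 and 18 h as percent of control, DMSO set to 100% and a positive control to 0%. A time point counts as decreased when the signal drops significantly (2 sigma). The hit call is the authors' own, does not follow from the count of time points alone, and its rule is not shown.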

Sequences of proteins named here, by UniProt entry; tags and fusion partners are left off. A change or cut given only in a name is not applied to a line headed by its entry.
UniProt P00519, whole entry: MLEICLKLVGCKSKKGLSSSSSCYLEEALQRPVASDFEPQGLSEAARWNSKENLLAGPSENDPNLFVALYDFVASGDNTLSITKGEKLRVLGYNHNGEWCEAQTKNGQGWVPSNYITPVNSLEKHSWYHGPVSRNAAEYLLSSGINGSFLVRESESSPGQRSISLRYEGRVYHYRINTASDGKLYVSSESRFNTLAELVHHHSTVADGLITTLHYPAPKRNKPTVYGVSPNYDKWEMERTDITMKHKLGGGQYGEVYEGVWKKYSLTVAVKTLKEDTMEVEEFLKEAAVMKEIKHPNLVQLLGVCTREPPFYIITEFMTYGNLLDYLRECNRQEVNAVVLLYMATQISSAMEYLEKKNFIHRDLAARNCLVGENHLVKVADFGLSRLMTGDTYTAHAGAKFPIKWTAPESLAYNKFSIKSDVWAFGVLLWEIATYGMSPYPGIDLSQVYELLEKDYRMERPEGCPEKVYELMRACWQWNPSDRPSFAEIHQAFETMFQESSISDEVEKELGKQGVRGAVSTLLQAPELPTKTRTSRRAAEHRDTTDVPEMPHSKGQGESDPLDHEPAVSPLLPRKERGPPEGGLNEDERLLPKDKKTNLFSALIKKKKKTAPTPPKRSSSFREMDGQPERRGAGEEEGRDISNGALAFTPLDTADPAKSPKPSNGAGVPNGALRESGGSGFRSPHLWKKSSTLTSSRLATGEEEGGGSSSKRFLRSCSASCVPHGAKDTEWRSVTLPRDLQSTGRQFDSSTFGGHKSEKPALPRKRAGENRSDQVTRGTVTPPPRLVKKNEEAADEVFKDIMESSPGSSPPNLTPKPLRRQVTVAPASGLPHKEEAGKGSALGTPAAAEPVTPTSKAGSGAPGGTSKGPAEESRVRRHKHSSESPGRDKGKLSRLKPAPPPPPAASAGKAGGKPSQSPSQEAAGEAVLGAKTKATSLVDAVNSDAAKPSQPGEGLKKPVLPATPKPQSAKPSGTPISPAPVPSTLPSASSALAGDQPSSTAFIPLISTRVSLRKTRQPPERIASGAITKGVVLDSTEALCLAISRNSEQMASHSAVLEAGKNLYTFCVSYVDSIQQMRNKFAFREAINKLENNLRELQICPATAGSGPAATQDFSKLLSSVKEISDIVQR
UniProt P10398: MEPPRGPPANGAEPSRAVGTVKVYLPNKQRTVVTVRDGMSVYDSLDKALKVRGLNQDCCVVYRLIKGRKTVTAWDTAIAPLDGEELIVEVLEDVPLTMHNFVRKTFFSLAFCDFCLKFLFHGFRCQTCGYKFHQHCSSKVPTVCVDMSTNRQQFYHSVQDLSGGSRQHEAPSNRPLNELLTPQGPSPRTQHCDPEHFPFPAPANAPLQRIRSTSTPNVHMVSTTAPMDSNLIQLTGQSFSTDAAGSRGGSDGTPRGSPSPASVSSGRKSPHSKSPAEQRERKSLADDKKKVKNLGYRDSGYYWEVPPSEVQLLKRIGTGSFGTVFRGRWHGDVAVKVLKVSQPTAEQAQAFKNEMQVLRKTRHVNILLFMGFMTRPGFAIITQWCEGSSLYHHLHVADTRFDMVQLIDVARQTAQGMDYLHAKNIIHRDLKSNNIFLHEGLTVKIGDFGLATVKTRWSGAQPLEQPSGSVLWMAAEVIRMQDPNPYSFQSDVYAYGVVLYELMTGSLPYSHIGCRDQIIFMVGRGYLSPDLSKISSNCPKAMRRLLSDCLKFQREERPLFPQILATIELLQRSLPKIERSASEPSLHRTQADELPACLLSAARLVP
UniProt O14965: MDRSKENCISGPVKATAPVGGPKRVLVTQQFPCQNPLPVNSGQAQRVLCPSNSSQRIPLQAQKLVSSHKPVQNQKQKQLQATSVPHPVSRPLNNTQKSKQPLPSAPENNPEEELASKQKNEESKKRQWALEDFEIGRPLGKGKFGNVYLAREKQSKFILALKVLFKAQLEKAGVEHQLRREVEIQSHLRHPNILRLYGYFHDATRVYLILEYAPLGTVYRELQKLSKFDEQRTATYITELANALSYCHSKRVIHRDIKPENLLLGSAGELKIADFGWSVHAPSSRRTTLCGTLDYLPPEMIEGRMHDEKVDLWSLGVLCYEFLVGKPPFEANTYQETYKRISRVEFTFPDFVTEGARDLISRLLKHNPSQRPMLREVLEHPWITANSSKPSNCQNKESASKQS
UniProt Q96GD4, whole entry: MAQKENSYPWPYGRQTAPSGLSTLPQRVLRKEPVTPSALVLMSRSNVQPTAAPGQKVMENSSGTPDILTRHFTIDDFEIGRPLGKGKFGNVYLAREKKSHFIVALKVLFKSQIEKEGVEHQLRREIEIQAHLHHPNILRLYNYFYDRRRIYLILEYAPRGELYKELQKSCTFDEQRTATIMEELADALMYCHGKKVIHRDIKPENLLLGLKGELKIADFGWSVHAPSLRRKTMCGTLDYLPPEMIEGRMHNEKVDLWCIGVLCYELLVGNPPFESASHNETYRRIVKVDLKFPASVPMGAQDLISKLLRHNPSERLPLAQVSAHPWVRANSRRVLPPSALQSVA
UniProt Q9UQB9: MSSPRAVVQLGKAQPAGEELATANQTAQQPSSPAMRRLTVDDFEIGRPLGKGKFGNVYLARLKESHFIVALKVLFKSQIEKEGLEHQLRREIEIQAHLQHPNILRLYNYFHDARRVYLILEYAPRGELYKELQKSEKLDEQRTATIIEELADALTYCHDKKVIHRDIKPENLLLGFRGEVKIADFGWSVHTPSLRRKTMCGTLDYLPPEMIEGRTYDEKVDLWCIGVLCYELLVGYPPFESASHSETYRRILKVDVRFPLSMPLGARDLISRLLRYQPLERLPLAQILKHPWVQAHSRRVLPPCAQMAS
UniProt P51451: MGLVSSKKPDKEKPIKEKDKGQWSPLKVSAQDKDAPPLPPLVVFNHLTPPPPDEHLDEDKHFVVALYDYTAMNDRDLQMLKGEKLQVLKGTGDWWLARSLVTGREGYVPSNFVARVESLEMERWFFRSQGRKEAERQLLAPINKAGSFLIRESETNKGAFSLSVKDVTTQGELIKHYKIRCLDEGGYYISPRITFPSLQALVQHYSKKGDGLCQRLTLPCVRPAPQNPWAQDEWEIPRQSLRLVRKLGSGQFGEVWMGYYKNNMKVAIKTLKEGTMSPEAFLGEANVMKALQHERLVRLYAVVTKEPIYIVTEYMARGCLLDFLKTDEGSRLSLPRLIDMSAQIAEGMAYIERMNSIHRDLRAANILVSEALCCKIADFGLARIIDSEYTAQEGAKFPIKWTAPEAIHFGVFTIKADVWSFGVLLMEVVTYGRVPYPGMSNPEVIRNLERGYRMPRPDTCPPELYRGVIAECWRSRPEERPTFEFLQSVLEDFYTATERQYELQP
UniProt P51813: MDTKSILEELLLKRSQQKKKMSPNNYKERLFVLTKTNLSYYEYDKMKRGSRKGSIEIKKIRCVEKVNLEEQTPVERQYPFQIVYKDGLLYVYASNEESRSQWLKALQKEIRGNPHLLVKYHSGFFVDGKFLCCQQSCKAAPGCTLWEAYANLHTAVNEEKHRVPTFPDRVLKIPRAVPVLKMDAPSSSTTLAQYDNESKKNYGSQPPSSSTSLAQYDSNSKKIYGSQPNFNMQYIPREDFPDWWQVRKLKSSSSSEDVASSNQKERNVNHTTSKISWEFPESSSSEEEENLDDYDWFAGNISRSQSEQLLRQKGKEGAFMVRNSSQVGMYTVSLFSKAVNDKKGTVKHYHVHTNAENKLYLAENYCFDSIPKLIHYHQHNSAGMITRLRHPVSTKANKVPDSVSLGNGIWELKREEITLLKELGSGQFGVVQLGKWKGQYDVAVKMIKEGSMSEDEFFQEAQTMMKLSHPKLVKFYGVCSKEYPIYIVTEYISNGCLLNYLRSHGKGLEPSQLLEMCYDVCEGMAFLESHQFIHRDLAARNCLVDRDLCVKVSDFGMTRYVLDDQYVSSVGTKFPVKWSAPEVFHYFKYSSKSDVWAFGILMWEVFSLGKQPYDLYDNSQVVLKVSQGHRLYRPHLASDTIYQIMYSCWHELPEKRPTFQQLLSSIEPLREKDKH
UniProt P15056, whole entry, looked up: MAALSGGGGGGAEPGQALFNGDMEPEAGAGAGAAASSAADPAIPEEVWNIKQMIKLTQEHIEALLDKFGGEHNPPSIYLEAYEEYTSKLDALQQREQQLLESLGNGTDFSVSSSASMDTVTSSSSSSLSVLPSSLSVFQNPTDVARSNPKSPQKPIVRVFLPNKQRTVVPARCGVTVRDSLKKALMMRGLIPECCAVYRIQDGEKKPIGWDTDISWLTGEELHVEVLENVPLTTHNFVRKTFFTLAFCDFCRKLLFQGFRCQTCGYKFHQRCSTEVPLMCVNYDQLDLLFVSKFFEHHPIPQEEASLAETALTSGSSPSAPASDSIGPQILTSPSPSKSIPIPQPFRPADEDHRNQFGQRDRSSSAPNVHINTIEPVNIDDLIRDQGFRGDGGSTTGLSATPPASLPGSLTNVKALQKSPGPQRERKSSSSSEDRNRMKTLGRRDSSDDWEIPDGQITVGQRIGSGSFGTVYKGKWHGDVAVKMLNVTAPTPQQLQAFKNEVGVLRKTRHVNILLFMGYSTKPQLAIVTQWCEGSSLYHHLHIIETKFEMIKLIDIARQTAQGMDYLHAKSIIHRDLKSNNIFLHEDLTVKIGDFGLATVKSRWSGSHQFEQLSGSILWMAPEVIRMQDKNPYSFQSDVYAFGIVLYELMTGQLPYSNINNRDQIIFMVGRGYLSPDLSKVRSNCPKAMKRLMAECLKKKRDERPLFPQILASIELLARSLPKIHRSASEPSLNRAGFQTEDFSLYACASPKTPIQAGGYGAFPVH
UniProt Q9UQM7, whole entry: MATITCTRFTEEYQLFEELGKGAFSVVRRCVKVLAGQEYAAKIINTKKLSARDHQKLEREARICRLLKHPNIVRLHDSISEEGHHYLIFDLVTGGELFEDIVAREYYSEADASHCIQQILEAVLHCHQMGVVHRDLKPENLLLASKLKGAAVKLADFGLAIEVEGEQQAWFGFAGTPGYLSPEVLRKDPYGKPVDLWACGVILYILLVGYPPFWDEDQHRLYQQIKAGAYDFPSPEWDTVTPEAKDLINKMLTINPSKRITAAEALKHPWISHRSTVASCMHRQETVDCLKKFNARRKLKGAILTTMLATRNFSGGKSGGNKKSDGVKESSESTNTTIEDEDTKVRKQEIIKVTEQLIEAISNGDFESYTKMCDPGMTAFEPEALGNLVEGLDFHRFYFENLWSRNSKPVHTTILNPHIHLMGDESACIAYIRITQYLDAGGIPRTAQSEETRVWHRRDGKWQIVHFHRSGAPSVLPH
UniProt Q00526: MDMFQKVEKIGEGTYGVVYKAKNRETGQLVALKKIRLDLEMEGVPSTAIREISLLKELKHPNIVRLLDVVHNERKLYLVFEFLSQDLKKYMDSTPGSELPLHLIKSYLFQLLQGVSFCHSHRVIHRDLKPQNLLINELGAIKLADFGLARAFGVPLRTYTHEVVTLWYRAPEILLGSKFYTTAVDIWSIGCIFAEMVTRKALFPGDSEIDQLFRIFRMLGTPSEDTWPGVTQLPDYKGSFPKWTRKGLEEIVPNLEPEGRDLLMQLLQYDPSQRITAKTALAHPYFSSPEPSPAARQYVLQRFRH
UniProt P11802: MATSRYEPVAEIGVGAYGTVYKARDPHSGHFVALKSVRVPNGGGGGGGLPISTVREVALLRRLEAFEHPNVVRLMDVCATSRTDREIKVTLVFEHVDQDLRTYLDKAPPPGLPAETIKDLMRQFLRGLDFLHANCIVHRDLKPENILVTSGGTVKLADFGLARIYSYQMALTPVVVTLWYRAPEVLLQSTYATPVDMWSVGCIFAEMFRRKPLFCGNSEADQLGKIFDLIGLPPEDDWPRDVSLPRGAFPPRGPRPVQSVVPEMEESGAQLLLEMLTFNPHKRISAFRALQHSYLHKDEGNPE
UniProt Q00535, whole entry, looked up: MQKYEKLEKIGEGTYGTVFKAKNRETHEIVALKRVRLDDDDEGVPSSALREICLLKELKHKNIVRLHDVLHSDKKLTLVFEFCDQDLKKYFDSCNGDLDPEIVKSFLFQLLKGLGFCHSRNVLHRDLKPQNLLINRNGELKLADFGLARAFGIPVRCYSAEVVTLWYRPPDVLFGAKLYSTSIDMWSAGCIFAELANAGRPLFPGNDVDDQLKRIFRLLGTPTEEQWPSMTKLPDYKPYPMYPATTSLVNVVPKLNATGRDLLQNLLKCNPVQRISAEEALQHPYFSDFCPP
UniProt Q00534, whole entry: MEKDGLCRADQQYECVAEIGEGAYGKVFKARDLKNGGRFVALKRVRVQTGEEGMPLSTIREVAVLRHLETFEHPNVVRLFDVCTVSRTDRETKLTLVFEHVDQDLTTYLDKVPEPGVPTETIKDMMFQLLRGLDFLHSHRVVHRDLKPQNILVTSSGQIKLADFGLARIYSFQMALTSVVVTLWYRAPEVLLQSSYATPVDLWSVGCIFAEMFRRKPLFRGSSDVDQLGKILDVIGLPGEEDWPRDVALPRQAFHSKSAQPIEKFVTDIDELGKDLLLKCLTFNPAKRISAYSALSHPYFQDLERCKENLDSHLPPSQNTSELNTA

What was measured:
Assay in all cases: kinase-Nluc reporter destabilization hit call (1 = scored as downregulated) (binary); higher = compound decreases kinase abundance
Details in all cases: K562; 2-18 h
ABL1 = ABL1 (UniProt P00519)
AKT1 = AKT1 (UniProt P31749)
ALK = ALK (UniProt Q9UM73)
ARAF = ARAF (UniProt P10398)
AURKA = AURKA (UniProt O14965)
AURKB = AURKB (UniProt Q96GD4)
AURKC = AURKC (UniProt Q9UQB9)
BLK = BLK (UniProt P51451)
BMX = BMX (UniProt P51813)
BRAF = BRAF (UniProt P15056)
BRAF_V600E = tested on: BRAF_V600E
BTK = BTK (UniProt Q06187)
CAMK2A = CAMK2A (UniProt Q9UQM7)
CAMK2G = CAMK2G (UniProt Q13555)
CDK10 = CDK10 (UniProt Q15131)
CDK2 = CDK2 (UniProt P24941)
CDK3 = CDK3 (UniProt Q00526)
CDK4 = CDK4 (UniProt P11802)
CDK5 = CDK5 (UniProt Q00535)
CDK6 = CDK6 (UniProt Q00534)

Measured: kinase-Nluc reporter destabilization hit call

Fc1ccc(-c2nc3n(c2-c2ccncc2)CCS3)cc1 (10 µM)
inactive: ABL1 = 0 | AKT1 = 0 | ALK 0 | ARAF 0 | AURKA 0 | AURKB 0 | AURKC 0 | BLK 0 | BMX 0 | BRAF 0 | BRAF_V600E 0 | BTK 0 | CAMK2A 0 | CAMK2G 0 | CDK10 = 0 | CDK2 = 0 | CDK3 = 0 | CDK4 = 0 | CDK5 = 0 | CDK6 = 0

CN1C(=O)N[C@@H](Cc2c[nH]c3c(Cl)cccc23)C1=O [Necrostatin 2 (S enantiomer)] (10 µM)
inactive: ABL1 = 0 | AKT1 = 0 | ALK 0 | ARAF 0 | AURKA 0 | AURKB 0 | AURKC 0 | BLK 0 | BMX 0 | BRAF 0 | BRAF_V600E 0 | BTK 0 | CAMK2A 0 | CAMK2G 0 | CDK10 = 0 | CDK2 = 0 | CDK3 = 0 | CDK4 = 0 | CDK5 = 0 | CDK6 = 0

O=C(NC[C@H](O)CO)c1ccncc1Nc1ccc(I)cc1F [Pimasertib] (10 µM)
inactive: ABL1 = 0 | AKT1 = 0 | ALK 0 | ARAF 0 | AURKA 0 | AURKB 0 | AURKC 0 | BLK 0 | BMX 0 | BRAF 0 | BRAF_V600E 0 | BTK 0 | CAMK2A 0 | CAMK2G 0 | CDK10 = 0 | CDK2 = 0 | CDK3 = 0 | CDK4 = 0 | CDK5 = 0 | CDK6 = 0

COc1cc2ncnc(Nc3cc(Br)c(O)c(Br)c3)c2cc1OC (2.5 µM)
inactive: ABL1 = 0 | AKT1 = 0 | ALK 0 | ARAF 0 | AURKA 0 | AURKB 0 | AURKC 0 | BLK 0 | BMX 0 | BRAF 0 | BRAF_V600E 0 | BTK 0 | CAMK2A 0 | CAMK2G 0 | CDK10 = 0 | CDK2 = 0 | CDK3 = 0 | CDK4 = 0 | CDK5 = 0 | CDK6 = 0

C[C@H](Nc1cc2c(-c3ccc4c(c3)OCO4)noc2cn1)c1ccccc1 (10 µM)
inactive: ABL1 = 0 | AKT1 = 0 | ALK 0 | ARAF 0 | AURKA 0 | AURKB 0 | AURKC 0 | BLK 0 | BMX 0 | BRAF 0 | BRAF_V600E 0 | BTK 0 | CAMK2A 0 | CAMK2G 0 | CDK10 = 0 | CDK2 = 0 | CDK3 = 0 | CDK4 = 0 | CDK5 = 0 | CDK6 = 0

CCC[C@H](C)Oc1nc(N)c2[nH]c(=O)n(CCCCCN3CCCCC3)c2n1 (10 µM)
inactive: ABL1 = 0 | AKT1 = 0 | ALK 0 | ARAF 0 | AURKA 0 | AURKB 0 | AURKC 0 | BLK 0 | BMX 0 | BRAF 0 | BRAF_V600E 0 | BTK 0 | CAMK2A 0 | CAMK2G 0 | CDK10 = 0 | CDK2 = 0 | CDK3 = 0 | CDK4 = 0 | CDK5 = 0 | CDK6 = 0

Cc1ncsc1-c1ccc(CNC(=O)[C@@H]2C[C@@H](O)CN2C(=O)[C@@H](NC(=O)COCCOc2ccc(-c3cc(Nc4ccc(OC(F)(F)F)cc4)ncn3)cc2)C(C)(C)C)cc1 (2.5 µM)
inactive: AKT1 = 0 | ALK 0 | ARAF 0 | AURKA 0 | AURKB 0 | AURKC 0 | BLK 0 | BMX 0 | BRAF 0 | BRAF_V600E 0 | BTK 0 | CAMK2A 0 | CAMK2G 0 | CDK10 = 0 | CDK2 = 0 | CDK3 = 0 | CDK4 = 0 | CDK5 = 0 | CDK6 = 0
active: ABL1 = 1

Reprinted at random: 2 records from the list
Cc1ncsc1-c1ccc(CNC(=O)[C@@H]2C[C@@H](O)CN2C(=O)[C@@H](NC(=O)COCCOc2ccc(-c3cc(Nc4ccc(OC(F)(F)F)cc4)ncn3)cc2)C(C)(C)C)cc1 (2.5 µM)
inactive: AKT1 = 0 | ALK 0 | ARAF 0 | AURKA 0 | AURKB 0 | AURKC 0 | BLK 0 | BMX 0 | BRAF 0 | BRAF_V600E 0 | BTK 0 | CAMK2A 0 | CAMK2G 0 | CDK10 = 0 | CDK2 = 0 | CDK3 = 0 | CDK4 = 0 | CDK5 = 0 | CDK6 = 0
active: ABL1 = 1

COc1cc2ncnc(Nc3cc(Br)c(O)c(Br)c3)c2cc1OC (2.5 µM)
inactive: ABL1 = 0 | AKT1 = 0 | ALK 0 | ARAF 0 | AURKA 0 | AURKB 0 | AURKC 0 | BLK 0 | BMX 0 | BRAF 0 | BRAF_V600E 0 | BTK 0 | CAMK2A 0 | CAMK2G 0 | CDK10 = 0 | CDK2 = 0 | CDK3 = 0 | CDK4 = 0 | CDK5 = 0 | CDK6 = 0

Further records follow:

COc1ccc(Cl)cc1N(CC(=O)Nc1ccc2c(c1)OCO2)S(=O)(=O)c1ccccc1 (2.5 µM)
inactive: ABL1 = 0 | AKT1 = 0 | ALK 0 | ARAF 0 | AURKA 0 | AURKB 0 | AURKC 0 | BLK 0 | BMX 0 | BRAF 0 | BRAF_V600E 0 | BTK 0 | CAMK2A 0 | CAMK2G 0 | CDK10 = 0 | CDK2 = 0 | CDK3 = 0 | CDK4 = 0 | CDK5 = 0 | CDK6 = 0

CNC(=O)CN1CCC(Oc2cc3c(Nc4cccc(Cl)c4F)ncnc3cc2OC)CC1 [Sapitinib] (10 µM)
inactive: ABL1 = 0 | AKT1 = 0 | ALK 0 | ARAF 0 | AURKA 0 | AURKB 0 | AURKC 0 | BLK 0 | BMX 0 | BRAF 0 | BRAF_V600E 0 | BTK 0 | CAMK2A 0 | CAMK2G 0 | CDK10 = 0 | CDK2 = 0 | CDK3 = 0 | CDK4 = 0 | CDK5 = 0 | CDK6 = 0

O=c1c(O)c(-c2ccc(O)c(O)c2)oc2cc(O)c(O)c(O)c12 [Quercetagetin] (10 µM)
inactive: ABL1 = 0 | AKT1 = 0 | ALK 0 | ARAF 0 | AURKA 0 | AURKB 0 | AURKC 0 | BLK 0 | BMX 0 | BRAF 0 | BRAF_V600E 0 | BTK 0 | CAMK2A 0 | CAMK2G 0 | CDK10 = 0 | CDK2 = 0 | CDK3 = 0 | CDK4 = 0 | CDK5 = 0 | CDK6 = 0

Cn1c(N2CCO[C@@H](c3ccc(F)cc3)C2)nc(-c2ccncn2)cc1=O (10 µM)
inactive: ABL1 = 0 | AKT1 = 0 | ALK 0 | ARAF 0 | AURKA 0 | AURKB 0 | AURKC 0 | BLK 0 | BMX 0 | BRAF 0 | BRAF_V600E 0 | BTK 0 | CAMK2A 0 | CAMK2G 0 | CDK10 = 0 | CDK2 = 0 | CDK3 = 0 | CDK4 = 0 | CDK5 = 0 | CDK6 = 0

O=C(CCl)c1c[nH]c2ccccc12 (2.5 µM)
inactive: ABL1 = 0 | AKT1 = 0 | ALK 0 | ARAF 0 | AURKA 0 | AURKB 0 | AURKC 0 | BLK 0 | BMX 0 | BRAF 0 | BRAF_V600E 0 | BTK 0 | CAMK2A 0 | CAMK2G 0 | CDK10 = 0 | CDK2 = 0 | CDK3 = 0 | CDK4 = 0 | CDK5 = 0 | CDK6 = 0

Nc1ccc(-c2nc3ccc(-c4nc5ccc(N)cc5[nH]4)cc3[nH]2)cc1 (10 µM)
inactive: ABL1 = 0 | AKT1 = 0 | ALK 0 | ARAF 0 | AURKA 0 | AURKB 0 | AURKC 0 | BLK 0 | BMX 0 | BRAF 0 | BRAF_V600E 0 | BTK 0 | CAMK2A 0 | CAMK2G 0 | CDK10 = 0 | CDK2 = 0 | CDK3 = 0 | CDK4 = 0 | CDK5 = 0 | CDK6 = 0

Cn1cc(C2=C(c3ccc(Cl)cc3Cl)C(=O)NC2=O)c2ccccc21 (10 µM)
inactive: ABL1 = 0 | AKT1 = 0 | ALK 0 | ARAF 0 | AURKA 0 | AURKB 0 | AURKC 0 | BLK 0 | BMX 0 | BRAF 0 | BRAF_V600E 0 | BTK 0 | CAMK2A 0 | CAMK2G 0 | CDK10 = 0 | CDK2 = 0 | CDK3 = 0 | CDK4 = 0 | CDK5 = 0 | CDK6 = 0

O=C1C=CC2=C3c4cc(O)c(O)cc4CC3(O)COC2=C1O (stereo not given) [Hematein] (10 µM)
inactive: ABL1 = 0 | AKT1 = 0 | ALK 0 | ARAF 0 | AURKA 0 | AURKB 0 | AURKC 0 | BLK 0 | BMX 0 | BRAF 0 | BRAF_V600E 0 | BTK 0 | CAMK2A 0 | CAMK2G 0 | CDK10 = 0 | CDK2 = 0 | CDK3 = 0 | CDK4 = 0 | CDK5 = 0 | CDK6 = 0

CCOC(=O)c1c(Nc2ccccc2Cl)oc(/C=C2\C=Nc3ncccc32)c1O (10 µM)
inactive: ABL1 = 0 | AKT1 = 0 | ALK 0 | ARAF 0 | AURKA 0 | AURKB 0 | AURKC 0 | BLK 0 | BMX 0 | BRAF 0 | BRAF_V600E 0 | BTK 0 | CAMK2A 0 | CAMK2G 0 | CDK10 = 0 | CDK2 = 0 | CDK3 = 0 | CDK4 = 0 | CDK5 = 0 | CDK6 = 0

CC(=O)O/N=C1/C(c2c(O)[nH]c3cc(Br)ccc23)=Nc2ccccc21 [BIO-acetoxime] (10 µM)
inactive: ABL1 = 0 | AKT1 = 0 | ALK 0 | ARAF 0 | AURKA 0 | AURKB 0 | AURKC 0 | BLK 0 | BMX 0 | BRAF 0 | BRAF_V600E 0 | BTK 0 | CAMK2A 0 | CAMK2G 0 | CDK10 = 0 | CDK2 = 0 | CDK3 = 0 | CDK4 = 0 | CDK5 = 0 | CDK6 = 0

CS(=O)(=O)c1cccc(CNc2nc(Nc3ccc4c(c3)CCC(=O)N4)ncc2C(F)(F)F)c1 (10 µM)
inactive: ABL1 = 0 | AKT1 = 0 | ALK 0 | ARAF 0 | AURKA 0 | AURKB 0 | AURKC 0 | BLK 0 | BMX 0 | BRAF 0 | BRAF_V600E 0 | BTK 0 | CAMK2A 0 | CAMK2G 0 | CDK10 = 0 | CDK2 = 0 | CDK3 = 0 | CDK4 = 0 | CDK5 = 0 | CDK6 = 0
